Experimental data taken from paper PMC4973907.
These are yes or no findings as the source states them, for the method shown. In cells and extracts the contact can be indirect. Some entries that bind do so weakly or less than the wild type. Tags and fused reporters may be left off the sequences shown.

T1: nRFP-PEX7 (UniProt Q9XF57)
T1 sequence: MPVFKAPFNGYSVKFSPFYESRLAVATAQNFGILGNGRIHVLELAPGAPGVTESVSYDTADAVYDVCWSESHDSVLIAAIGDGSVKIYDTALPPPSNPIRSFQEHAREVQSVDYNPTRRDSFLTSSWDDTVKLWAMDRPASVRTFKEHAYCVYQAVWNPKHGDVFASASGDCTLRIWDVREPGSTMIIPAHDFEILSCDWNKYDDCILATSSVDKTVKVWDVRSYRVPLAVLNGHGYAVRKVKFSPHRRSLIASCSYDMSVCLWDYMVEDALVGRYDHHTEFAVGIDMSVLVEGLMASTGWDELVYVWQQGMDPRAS

T2: peroxisomal membrane protein 38 (PMP38), fused to a split mRFP1 fragment (UniProt O04200)
T2 sequence: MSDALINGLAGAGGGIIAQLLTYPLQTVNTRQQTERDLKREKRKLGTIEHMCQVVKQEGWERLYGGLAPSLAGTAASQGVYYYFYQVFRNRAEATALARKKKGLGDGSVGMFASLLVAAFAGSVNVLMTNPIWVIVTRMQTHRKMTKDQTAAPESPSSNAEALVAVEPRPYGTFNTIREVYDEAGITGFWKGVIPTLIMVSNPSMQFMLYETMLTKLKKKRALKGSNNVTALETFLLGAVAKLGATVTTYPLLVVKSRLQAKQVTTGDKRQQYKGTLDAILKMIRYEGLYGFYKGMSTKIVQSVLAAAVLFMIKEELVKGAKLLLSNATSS

T3: AtSEC31A-nYFP (UniProt F4ICD9)
T3 sequence: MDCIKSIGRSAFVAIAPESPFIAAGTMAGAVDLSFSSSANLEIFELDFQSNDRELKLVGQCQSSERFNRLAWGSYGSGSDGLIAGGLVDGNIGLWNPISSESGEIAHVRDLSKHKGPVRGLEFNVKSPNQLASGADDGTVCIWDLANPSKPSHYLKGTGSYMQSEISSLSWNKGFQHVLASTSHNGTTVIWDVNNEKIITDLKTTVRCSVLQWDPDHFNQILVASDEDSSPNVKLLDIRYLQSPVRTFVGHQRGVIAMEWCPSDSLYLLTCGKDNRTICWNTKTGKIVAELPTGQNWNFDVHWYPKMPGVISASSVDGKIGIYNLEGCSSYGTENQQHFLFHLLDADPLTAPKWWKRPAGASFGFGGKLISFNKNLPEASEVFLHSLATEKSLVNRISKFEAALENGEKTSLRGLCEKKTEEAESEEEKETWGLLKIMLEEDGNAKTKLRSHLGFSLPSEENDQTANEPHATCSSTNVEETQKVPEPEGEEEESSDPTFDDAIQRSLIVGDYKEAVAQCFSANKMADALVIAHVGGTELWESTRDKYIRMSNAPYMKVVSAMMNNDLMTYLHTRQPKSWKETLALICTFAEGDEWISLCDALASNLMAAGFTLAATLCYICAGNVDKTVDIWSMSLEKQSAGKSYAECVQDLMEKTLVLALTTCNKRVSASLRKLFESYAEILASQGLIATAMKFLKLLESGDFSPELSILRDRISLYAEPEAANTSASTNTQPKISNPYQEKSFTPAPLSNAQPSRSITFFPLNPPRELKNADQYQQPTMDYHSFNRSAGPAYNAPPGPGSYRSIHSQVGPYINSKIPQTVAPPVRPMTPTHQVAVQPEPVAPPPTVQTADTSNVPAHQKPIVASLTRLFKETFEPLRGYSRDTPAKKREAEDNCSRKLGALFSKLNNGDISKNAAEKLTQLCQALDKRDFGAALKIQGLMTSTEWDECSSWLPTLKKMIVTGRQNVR


Assays:
[1] = target: T1, nRFP-PEX7; test: split reporter; mRFP1-based BiFC; pairs of Agrobacterium cultures with binary vectors co-infiltrated into Nicotiana benthamiana leaves, incubation for 3 days, confocal microscopy
[2] = target: T2, peroxisomal membrane protein 38 (PMP38), fused to a split mRFP1 fragment; test: as above
[3] = target: T3, AtSEC31A-nYFP; test: split reporter; BiFC with split ECFP, EGFP, EYFP or mRFP1; two or four plasmids introduced into onion epidermal cells by particle bombardment; confocal microscopy and emission spectra (LSM510 META)

| binding [1] | binding [2] | binding [3] | Binder |
| --- | --- | --- | --- |
| no binding | binds | – | peroxisomal membrane protein 38 (PMP38), fused to a split mRFP1 fragment (protein, UniProt O04200 1-331) MSDALINGLAGAGGGIIAQLLTYPLQTVNTRQQTERDLKREKRKLGTIEHMCQVVKQEGWERLYGGLAPSLAGTAASQGVYYYFYQVFRNRAEATALARKKKGLGDGSVGMFASLLVAAFAGSVNVLMTNPIWVIVTRMQTHRKMTKDQTAAPESPSSNAEALVAVEPRPYGTFNTIREVYDEAGITGFWKGVIPTLIMVSNPSMQFMLYETMLTKLKKKRALKGSNNVTALETFLLGAVAKLGATVTTYPLLVVKSRLQAKQVTTGDKRQQYKGTLDAILKMIRYEGLYGFYKGMSTKIVQSVLAAAVLFMIKEELVKGAKLLLSNATSS |
| – | – | binds | AtSEC13A-cYFP (protein, UniProt Q9SRI1 1-302) MPPQKIETGHSDTIHDVVMDYYGKRVATASSDCTIKITGVSNSGGSQHLATLTGHRGPVWQVAWAHPKFGSLLASCSYDGQIILWKEGNQNQWTQAHVFTDHKVSVNSIAWAPHELGLSLACGASDGNISVFSARADGGWDTTKIDQAHPVGVTSVSWAPATEPGALVSSGMIDPVYKLASGGCDSTVKVWKFSNGSWKMDCFPALNKHTDWVRDVAWAPNLGLPKSTIASGSEDGKVIIWTIGKEGEQWEGTVLKDFKTPVWRVSWSLTGNLLAVSDGNNNVTVWKESVDGEWEQVTVVEP |
| no binding | no binding | – | cRFP-PEX12 (protein, UniProt Q9M841 1-393) MLFQVGGEGTRPTFFEMAAAQQLPASLRAALTYSLGVFALRRSFLHKILDYEDEFFAALMLILEGHSLRTTDGSFAESLYGLRRKSARLRLRKDSARKDSSEEVQHSGLEKRQRILSVVFLVVLPYFKSKLHAIYNKEREARLRESLWGAEDQGFDEADFFTGDDSIVSREPSGNEELSVRVQLATKIKKFIAVCYPWIHASSEGLSFTYQLLYLLDATGFYSLGLQALGIQVCRATGQELMDTSSRISKIRNHERERLRGPPWLKTVQGALLSCSYAVLDYAQTGLIAAVFIFKMMEWWYQSAEERLSAPTVYPPPPPPPAPKMAKEGIPLPPDRSLCALCLQKRANPSVVTVSGFVFCYSCVFKYVSKYKRCPVTLIPASVDQIRRLFQDT |
